Data from PubChem BioAssay AID192 (DTP/NCI, 2004).
The list is a part of this screen's results and no random one: it is rich in T/C values a quarter to a half above the control, in often repeated tests (any T/C) and in doses without a T/C. Other doses and runs of a compound stand elsewhere. T/C: endpoint of the treated group in % of that of the vehicle group. Some doses have a count of surviving animals in place of a T/C: the source files T/C as zero there, which appears to mark a toxic dose or a test without result, not a measured value. Some survivor counts are full or nearly so, which does not show that the dose was tolerated: the source hardly ever lists a survival T/C far under the control, and the zero likely stands for such cases as well. Survivors were counted at the toxicity check, usually on the fifth day, unless a day is given; later deaths do not show. Schedule codes are those of the source, read here as Q, the interval in days (D) or hours (H), X, the number of doses. Some doses were run more than once; the values are given in rising order. Where survival is the endpoint, the PubChem record calls one and a half times the control and up active, and a quarter to a half above the control has no call in these data; cut-offs in other NCI protocols can differ. Some T/C values are followed by the survivors on the day toxicity was checked, most often the fifth; without a count, all were alive then.

System: BDF1 mice, B16 melanoma ip, median survival T/C
Assay: NCI In Vivo Anticancer Drug Screen. Data for tumor model B16 Melanoma (intraperitoneal) in B6D2F1 (BDF1) mice
Conditions: T/C endpoint: median survival time, higher T/C = longer survival
Procedure, shortened: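 In this screen, activity was judged from survival or tumor size in treated versus vehicle-treated tumor-bearing mice, reported as T/C.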

[1] = dose: 32.0 mg/kg/injection, schedule: Q01DX009 (ip), vehicle: saline with Tween-80
[2] = dose: 512.0 mg/kg/injection, schedule: Q04DX003 (ip), vehicle: saline with Tween-80
[3] = dose: 400.0 mg/kg/injection, schedule: Q01DX009 (ip), vehicle: Klucel (hydroxypropylcellulose) (HPC)
[4] = dose: 50.0 mg/kg/injection, schedule: Q01DX009 (ip), vehicle: saline with Tween-80
[5] = dose: 100.0 mg/kg/injection, schedule: Q01DX009 (ip), vehicle: saline with Tween-80
[6] = dose: 200.0 mg/kg/injection, schedule: Q01DX009 (ip), vehicle: saline with Tween-80
[7] = dose: 25.0 mg/kg/injection, schedule: Q01DX009 (ip), vehicle: saline with Tween-80
[8] = dose: 200.0 mg/kg/injection, schedule: Q01DX009 (ip), vehicle: Klucel (hydroxypropylcellulose) (HPC)
[9] = dose: 100.0 mg/kg/injection, schedule: Q01DX009 (ip), vehicle: Klucel (hydroxypropylcellulose) (HPC)

CC(CN1CC(=O)NC(=O)C1)N1CC(=O)NC(=O)C1 (stereo unspecified) was tested, and the T/C (dose: 4.0 mg/kg/injection, schedule: Q03HX024 (ip), vehicle: saline) was 136 % of control, the survivor count (dose: 8.0 mg/kg/injection, schedule: Q03HX024 (ip), vehicle: saline) was 9 of 10 and the T/C (dose: 15.0 mg/kg/injection, schedule: Q01DX009 (oral), vehicle: saline) was 131 % of control. The T/C (dose: 16.0 mg/kg/injection, schedule: Q01DX009 (ip), vehicle: Klucel (hydroxypropylcellulose) (HPC)) was 125 % of control, the survivor count (dose: 16.0 mg/kg/injection, schedule: Q01DX009 (ip), vehicle: saline with Tween-80) was 8 of 10 and the T/C (dose: 16.0 mg/kg/injection, schedule: Q01DX009 (ip), vehicle: saline) was 128 % of control. The survivor count (dose: 16.0 mg/kg/injection, schedule: Q03HX024 (ip), vehicle: saline) was 10 of 10, the T/C [1] was 136 % of control and the survivor count [1] was 9 of 10. The T/C (dose: 32.0 mg/kg/injection, schedule: Q01DX009 (ip), vehicle: saline) was 136 % of control, the survivor count (dose: 32.0 mg/kg/injection, schedule: Q03HX024 (ip), vehicle: saline) was 10 of 10 and the survivor count (dose: 60.0 mg/kg/injection, schedule: Q01DX009 (ip), vehicle: saline) was 5 of 6. For the same molecule, the survivor count (dose: 60.0 mg/kg/injection, schedule: Q01DX009 (oral), vehicle: saline) was 6 of 6, the survivor count (dose: 64.0 mg/kg/injection, schedule: Q01DX009 (ip), vehicle: saline with Tween-80) was 8 of 10, 9 of 10, 10 of 10 and the T/C (dose: 64.0 mg/kg/injection, schedule: Q01DX009 (ip), vehicle: saline) was 131 % of control. For the same molecule, the survivor count (dose: 64.0 mg/kg/injection, schedule: Q03HX024 (ip), vehicle: saline) was 7 of 10, the survivor count (dose: 120.0 mg/kg/injection, schedule: Q01DX009 (oral), vehicle: saline) was 6 of 6 and the survivor count (dose: 128.0 mg/kg/injection, schedule: Q01DX009 (ip), vehicle: saline with Tween-80) was 9 of 10 and 10 of 10. For the same molecule, the T/C (dose: 128.0 mg/kg/injection, schedule: Q01DX009 (ip), vehicle: saline) was 139 % of control, the survivor count (dose: 128.0 mg/kg/injection, schedule: Q03HX024 (ip), vehicle: saline) was 7 of 10 and the T/C (dose: 128.0 mg/kg/injection, schedule: Q04DX003 (ip), vehicle: saline with Tween-80) was 126 % of control. The survivor count (dose: 240.0 mg/kg/injection, schedule: Q01DX009 (ip), vehicle: saline with Tween-80) was 10 of 10, the survivor count (dose: 240.0 mg/kg/injection, schedule: Q01DX009 (oral), vehicle: saline) was 6 of 6 and the survivor count (dose: 256.0 mg/kg/injection, schedule: Q01DX009 (ip), vehicle: Klucel (hydroxypropylcellulose) (HPC)) was 10 of 10. The survivor count (dose: 256.0 mg/kg/injection, schedule: Q01DX009 (ip), vehicle: saline with Tween-80) was 8 of 10, the T/C (dose: 256.0 mg/kg/injection, schedule: Q04DX003 (ip), vehicle: saline with Tween-80) was 135 and 141 % of control and the T/C (dose: 256.0 mg/kg/injection, schedule: Q04DX003 (ip), vehicle: saline) was 147 % of control. For the same molecule, the T/C (dose: 400.0 mg/kg/injection, schedule: Q04DX003 (ip), vehicle: Klucel (hydroxypropylcellulose) (HPC)) was 127 % of control, the survivor count (dose: 512.0 mg/kg/injection, schedule: Q01DX009 (ip), vehicle: Klucel (hydroxypropylcellulose) (HPC)) was 8 of 10 and the T/C [2] was 132 % of control. The survivor count [2] was 9 of 10, the survivor count (dose: 512.0 mg/kg/injection, schedule: Q04DX003 (ip), vehicle: saline) was 6 of 10 and the survivor count (dose: 800.0 mg/kg/injection, schedule: Q04DX003 (ip), vehicle: Klucel (hydroxypropylcellulose) (HPC)) was 10 of 10. The survivor count (dose: 1024.0 mg/kg/injection, schedule: Q04DX003 (ip), vehicle: saline with Tween-80) was 8 of 10 and the survivor count (dose: 1024.0 mg/kg/injection, schedule: Q04DX003 (ip), vehicle: saline) was 3 of 10.
In the case of CC1(C)CCSC(/C=C/c2ccccc2)=N1, the survivor count [3] is reported as 1 of 10.
For Oc1ccc2ccccc2c1N=Nc1ccc(Cl)cc1, the T/C [4] was 129 % of control, the T/C [5] was 134 % of control and the T/C [6] was 130 % of control.
In the case of COc1ccc(/C=C/c2ccc3ccccc3[n+]2C)c(OC)c1OC, the T/C (dose: 10.0 mg/kg/injection, schedule: Q01DX009 (ip), vehicle: saline) is reported as 126 % of control.
COc1cc(Cl)c(CC(=O)c2c[nH]c3ccccc23)cc1OC was tested, and the survivor count [7] was 10 of 10 and the survivor count [4] was 10 of 10.
In the case of BrC1c2cccc3cccc(c23)C1Br (stereo unspecified), the survivor count [5] is reported as 10 of 10 and the survivor count [6] is reported as 10 of 10.
In the case of CC(C)NC(=O)N(c1ccccc1)C(C)C, the survivor count [8] is reported as 5 of 10.
With O=S(=O)(O)O.[NH-]CC1(C[NH-])CCCCC1.[Pt+2] the T/C (dose: 4.0 mg/kg/injection, schedule: Q04DX003 (ip), vehicle: dextrose) was 131 % of control and the T/C (dose: 12.0 mg/kg/injection, schedule: Q04DX003 (ip), vehicle: dextrose) was 145 % of control [9 of 10 alive on day 10].
CCCCNC(C)(C)C(SSSC(c1ccc(Cl)cc1)C(C)(C)NCCCC)c1ccc(Cl)cc1 (stereo unspecified) was tested, and the survivor count (dose: 50.0 mg/kg/injection, schedule: Q01DX009 (ip), vehicle: Klucel (hydroxypropylcellulose) (HPC)) was 10 of 10.
In the case of CCCCCCCCCCCCOc1ccccn1, the survivor count [9] is reported as 10 of 10.
With O=C(Oc1ccc(Cl)cc1)c1ccc(Cl)cc1 the survivor count [9] was 10 of 10, the survivor count (dose: 150.0 mg/kg/injection, schedule: Q04DX003 (ip), vehicle: Klucel (hydroxypropylcellulose) (HPC)) was 10 of 10 and the survivor count [8] was 10 of 10. The survivor count (dose: 300.0 mg/kg/injection, schedule: Q04DX003 (ip), vehicle: Klucel (hydroxypropylcellulose) (HPC)) was 10 of 10 and the survivor count [3] was 10 of 10.
With CC(C)C(=O)[O][Sn]([CH3])([CH3])[CH3] the survivor count (dose: 0.75 mg/kg/injection, schedule: Q01DX009 (ip), vehicle: saline) was 9 of 10, the survivor count (dose: 1.5 mg/kg/injection, schedule: Q01DX009 (ip), vehicle: saline) was 6 of 10 and the survivor count (dose: 3.0 mg/kg/injection, schedule: Q01DX009 (ip), vehicle: saline) was 0 of 10.
With O=NN(CCBr)C(=O)Nc1ccccc1 the T/C (dose: 11.0 mg/kg/injection, schedule: Q01DX009 (ip), vehicle: saline with Tween-80) was 133 % of control, the T/C (dose: 16.5 mg/kg/injection, schedule: Q01DX009 (ip), vehicle: saline with Tween-80) was 149 % of control and the T/C [7] was 133 % of control.
For Cc1cc(N(CC(C)Br)CC(C)Br)ccc1N=Nc1ccccc1C(=O)O (stereo unspecified), the T/C (dose: 1.56 mg/kg/injection, schedule: Q01DX009 (ip), vehicle: saline with Tween-80) was 134 % of control, the T/C (dose: 3.12 mg/kg/injection, schedule: Q01DX009 (ip), vehicle: saline with Tween-80) was 140 % of control and the T/C (dose: 6.25 mg/kg/injection, schedule: Q01DX009 (ip), vehicle: saline with Tween-80) was 133, 144 [9 of 10 alive], 147 % of control. The survivor count (dose: 12.5 mg/kg/injection, schedule: Q01DX009 (ip), vehicle: saline with Tween-80) was 10 of 10 and the survivor count [7] was 6 of 10 and 9 of 10.
For Nc1c(Cl)c(Cl)nc(C(=O)O)c1Cl, the survivor count (dose: 25.0 mg/kg/injection, schedule: Q02DX009 (ip), vehicle: other) was 10 of 10, the survivor count (dose: 100.0 mg/kg/injection, schedule: Q02DX009 (ip), vehicle: Klucel (hydroxypropylcellulose) (HPC)) was 10 of 10 and the survivor count (dose: 200.0 mg/kg/injection, schedule: Q02DX009 (ip), vehicle: Klucel (hydroxypropylcellulose) (HPC)) was 10 of 10. For the same molecule, the survivor count (dose: 200.0 mg/kg/injection, schedule: Q02DX009 (ip), vehicle: other) was 9 of 10, the survivor count (dose: 400.0 mg/kg/injection, schedule: Q02DX009 (ip), vehicle: Klucel (hydroxypropylcellulose) (HPC)) was 1 of 10 and the survivor count (dose: 400.0 mg/kg/injection, schedule: Q02DX009 (ip), vehicle: other) was 7 of 10.
